Results published in paper PMC7472415.
These are yes or no findings as the source states them, for the method shown. Some results given as binding are weak or reduced against the parent protein; the word gives no strength.

Protein sequences, listed by entry. Tags and fused reporters are not part of them. Residues count along the entry.
UniProt P52294, 66-538: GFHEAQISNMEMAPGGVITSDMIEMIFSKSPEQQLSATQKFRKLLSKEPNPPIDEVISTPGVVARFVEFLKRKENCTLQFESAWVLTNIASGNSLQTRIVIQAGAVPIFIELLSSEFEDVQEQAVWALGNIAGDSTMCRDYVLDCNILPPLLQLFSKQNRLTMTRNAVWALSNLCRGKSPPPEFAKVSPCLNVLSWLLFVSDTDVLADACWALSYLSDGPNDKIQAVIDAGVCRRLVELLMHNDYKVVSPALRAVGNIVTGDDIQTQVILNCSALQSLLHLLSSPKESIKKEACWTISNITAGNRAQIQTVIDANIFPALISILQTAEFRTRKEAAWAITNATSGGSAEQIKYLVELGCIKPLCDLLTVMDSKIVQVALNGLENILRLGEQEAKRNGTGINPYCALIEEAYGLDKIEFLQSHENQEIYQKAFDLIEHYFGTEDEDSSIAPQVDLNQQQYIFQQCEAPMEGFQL
UniProt O00629, 64-521: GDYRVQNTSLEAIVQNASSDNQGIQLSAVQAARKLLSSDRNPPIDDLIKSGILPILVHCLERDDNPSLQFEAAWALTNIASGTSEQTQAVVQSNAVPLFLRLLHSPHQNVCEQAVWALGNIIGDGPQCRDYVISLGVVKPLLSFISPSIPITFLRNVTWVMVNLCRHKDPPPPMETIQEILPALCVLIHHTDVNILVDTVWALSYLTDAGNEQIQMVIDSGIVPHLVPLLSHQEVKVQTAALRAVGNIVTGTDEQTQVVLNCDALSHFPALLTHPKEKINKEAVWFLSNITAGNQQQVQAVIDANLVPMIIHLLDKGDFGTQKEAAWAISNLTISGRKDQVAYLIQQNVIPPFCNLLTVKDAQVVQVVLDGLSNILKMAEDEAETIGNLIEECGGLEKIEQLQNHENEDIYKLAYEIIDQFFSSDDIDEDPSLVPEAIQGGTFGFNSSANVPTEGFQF
UniProt P15682, 1-21: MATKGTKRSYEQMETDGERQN
UniProt O60684, 58-536: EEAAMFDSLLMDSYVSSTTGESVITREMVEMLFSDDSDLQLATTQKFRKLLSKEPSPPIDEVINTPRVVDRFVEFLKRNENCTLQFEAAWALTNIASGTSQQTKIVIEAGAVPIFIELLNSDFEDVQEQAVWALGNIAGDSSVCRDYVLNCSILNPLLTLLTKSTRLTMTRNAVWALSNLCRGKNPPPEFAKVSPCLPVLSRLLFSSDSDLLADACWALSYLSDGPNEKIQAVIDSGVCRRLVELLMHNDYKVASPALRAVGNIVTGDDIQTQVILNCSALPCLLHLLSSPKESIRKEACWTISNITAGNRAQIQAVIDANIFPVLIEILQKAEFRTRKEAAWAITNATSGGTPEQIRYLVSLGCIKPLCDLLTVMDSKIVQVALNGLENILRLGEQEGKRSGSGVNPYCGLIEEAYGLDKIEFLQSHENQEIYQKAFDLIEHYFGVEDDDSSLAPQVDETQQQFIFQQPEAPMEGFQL

How the values were obtained:
[1] = biological target: human importin-α5 without its importin-β binding (IBB) domain (residues 66 to 538) (human) (UniProt P52294)
[2] = biological target: human importin-α3 without its importin-β binding (IBB) domain (residues 64 to 521) (human) (UniProt O00629)
[3] = biological target: A/NP_TAIL-YFP, nucleoprotein tail of A/WSN/1933 (residues 1 to 21) fused to yellow fluorescent prote (influenza A virus A/WSN/1933) (UniProt P15682); test: SEC; both purified

## human importin-α5 without its importin-β binding (IBB) domain (residues 66 to 538) (from UniProt P52294 66-538) (domain or fragment)
[1]
  binding: no binding

## human importin-α3 without its importin-β binding (IBB) domain (residues 64 to 521) (from UniProt O00629 64-521) (domain or fragment)
[2]
  binding: no binding

## human importin-α7 without its importin-β binding (IBB) domain (residues 58 to 536) (from UniProt O60684 58-536) (domain or fragment)
[3]
  binding: binds
